Laboratory results from PubChem BioAssay AID330 (DTP/NCI, 2004).
The list shows only some results of the screen, not a fair sample: it gathers tests that were run many times, whatever their T/C, doses with no T/C, and many T/C values between a quarter and a half above the control. Other doses and runs of a compound stand elsewhere. T/C gives the treated animals as a percentage of the vehicle group. Some doses have a count of surviving animals in place of a T/C: the source holds a T/C of zero for them, seemingly a mark for toxic or unscored doses. Some survivor counts are full or nearly so, which does not show that the dose was tolerated: survival well below the control is almost never listed, so the zero probably covers shortened survival too. Counts of survivors are from the toxicity check (mostly the fifth day) where no day follows; animals may have died later. Schedule codes are those of the source, read here as Q, the interval in days (D) or hours (H), X, the number of doses. Some entries hold several experiments; the results are listed from low to high. For survival time, this PubChem deposit counts one and a half times the control or more as active, and values a quarter to a half above the control carry no call in these data; other NCI protocols may use other cut-offs.

System: P388 leukemia ip, CD2F1 mice, survival T/C
Assay: NCI In Vivo Anticancer Drug Screen. Data for tumor model P388 Leukemia (intraperitoneal) in CD2F1 (CDF1) mice
Conditions: T/C endpoint: median survival time, higher T/C = longer survival
[1] = dose: 100.0 mg/kg/injection, schedule: Q01DX005 (ip), vehicle: saline with Tween-80
[2] = dose: 200.0 mg/kg/injection, schedule: Q01DX005 (ip), vehicle: saline with Tween-80
[3] = dose: 200.0 mg/kg/injection, schedule: Q01DX005 (ip), vehicle: Klucel (hydroxypropylcellulose) (HPC)
[4] = dose: 200.0 mg/kg/injection, schedule: Q01DX009 (ip), vehicle: Klucel (hydroxypropylcellulose) (HPC)
[5] = dose: 240.0 mg/kg/injection, schedule: Q01DX005 (ip), vehicle: saline with Tween-80
[6] = dose: 200.0 mg/kg/injection, schedule: Q01DX009 (ip), vehicle: distilled water + Tween-80

O=[n+]1c2ccccc2n([O-])c2ccccc21.[Cl][Cu][Cl]
survivor count (dose: 100.0 mg/kg/injection, schedule: Q04DX003 (ip), vehicle: saline with Tween-80): 0 of 6
survivor count (dose: 200.0 mg/kg/injection, schedule: Q04DX003 (ip), vehicle: saline with Tween-80): 0 of 6
survivor count (dose: 400.0 mg/kg/injection, schedule: Q04DX003 (ip), vehicle: saline with Tween-80): 0 of 6

CC(C)COC(=O)N(CCCl)N=O
survivor count (dose: 10.0 mg/kg/injection, schedule: Q01DX009 (ip), vehicle: saline with Tween-80): 6 of 6
survivor count (dose: 20.0 mg/kg/injection, schedule: Q01DX001 (ip), vehicle: saline with Tween-80): 6 of 6
survivor count (dose: 20.0 mg/kg/injection, schedule: Q01DX009 (ip), vehicle: saline with Tween-80): 1 of 6
survivor count (dose: 40.0 mg/kg/injection, schedule: Q01DX001 (ip), vehicle: saline with Tween-80): 2 of 6

CC1(C)C(=O)C2=C(OC3([Se]2)C(=O)C(C)(C)C(=O)C(C)(C)C3=O)C(C)(C)C1=O
survivor count (dose: 240.0 mg/kg/injection, schedule: Q01DX005 (ip), vehicle: Klucel (hydroxypropylcellulose) (HPC)): 1 of 6

C=CCc1ccc(OCCN(CC)CC)c(OC)c1
survivor count (dose: 50.0 mg/kg/injection, schedule: Q01DX005 (ip), vehicle: saline with Tween-80): 2 of 6
survivor count [1]: 0 of 6
survivor count [2]: 0 of 6

CCCCCCCCNC(=O)C1C(=O)N(CCCCCCCC)C(=O)/C1=N/N (centres undefined)
survivor count (dose: 400.0 mg/kg/injection, schedule: Q04DX002 (ip), vehicle: saline with Tween-80): 6 of 6

CCOC(=O)C1(c2ccccc2)CCN(c2c3ccccc3nc3ccccc23)CC1
survivor count (dose: 200.0 mg/kg/injection, schedule: Q04DX003 (ip), vehicle: Klucel (hydroxypropylcellulose) (HPC)): 3 of 6
survivor count (dose: 400.0 mg/kg/injection, schedule: Q04DX003 (ip), vehicle: Klucel (hydroxypropylcellulose) (HPC)): 3 of 6

COc1ccc(-c2cc(C(=O)Nc3cc(C(F)(F)F)cc(C(F)(F)F)c3)c3ccccc3n2)cc1
survivor count (dose: 800.0 mg/kg/injection, schedule: Q01DX005 (ip), vehicle: DMSO): 6 of 6

CC(C)(C)c1ccc(/C=N/NC(=O)c2cccnc2)cc1
survivor count [3]: 0 of 5

CCCCCCCCCCCOC(=O)c1ccc(O)cc1
survivor count (dose: 200.0 mg/kg/injection, schedule: Q01DX009 (ip), vehicle: saline with Tween-80): 5 of 6

O=c1cc[nH]c(=O)o1
survivor count (dose: 100.0 mg/kg/injection, schedule: Q01DX009 (ip), vehicle: water): 0 of 6

COc1cc2cc(c1Cl)N(C)C(=O)C[C@H](OC(=O)[C@H](C)N(C)C(=O)CC(C)C)[C@]1(C)O[C@H]1[C@H](C)[C@@H]1C[C@@](O)(NC(=O)O1)[C@H](OC)C=C/C=C(\C)C2
T/C (dose: 0.8 micrograms/kg/injection, schedule: Q01DX009 (ip), vehicle: saline): 130 % of control
T/C (dose: 1.6 micrograms/kg/injection, schedule: Q01DX009 (ip), vehicle: saline): 135 % of control
T/C (dose: 3.1 micrograms/kg/injection, schedule: Q01DX009 (ip), vehicle: saline + alcohol): 144 % of control
T/C (dose: 3.1 micrograms/kg/injection, schedule: Q01DX009 (ip), vehicle: saline): 145 % of control
T/C (dose: 6.3 micrograms/kg/injection, schedule: Q01DX009 (ip), vehicle: saline): 145 % of control
survivor count (dose: 50.0 micrograms/kg/injection, schedule: Q01DX009 (ip), vehicle: saline + alcohol): 9 of 10
survivor count (dose: 100.0 micrograms/kg/injection, schedule: Q01DX009 (ip), vehicle: saline + alcohol): 5 of 10
survivor count (dose: 200.0 micrograms/kg/injection, schedule: Q01DX009 (ip), vehicle: saline + alcohol): 1 of 10

NC(=O)c1cc([N+](=O)[O-])cnc1Sc1ncn[nH]1
survivor count [4]: 3 of 6

O=C(O)c1c[nH]c2ccc([N+](=O)[O-])cc2c1=O
survivor count (dose: 16.9 mg/kg/injection, schedule: Q01DX009 (ip), vehicle: Klucel (hydroxypropylcellulose) (HPC)): 2 of 6
survivor count (dose: 33.75 mg/kg/injection, schedule: Q01DX009 (ip), vehicle: Klucel (hydroxypropylcellulose) (HPC)): 4 of 6
survivor count (dose: 67.5 mg/kg/injection, schedule: Q01DX009 (ip), vehicle: Klucel (hydroxypropylcellulose) (HPC)): 3 of 6
survivor count (dose: 90.0 mg/kg/injection, schedule: Q01DX009 (ip), vehicle: Klucel (hydroxypropylcellulose) (HPC)): 0 of 6
survivor count (dose: 135.0 mg/kg/injection, schedule: Q01DX009 (ip), vehicle: Klucel (hydroxypropylcellulose) (HPC)): 3 of 6
survivor count [4]: 5 of 6
survivor count (dose: 300.0 mg/kg/injection, schedule: Q01DX009 (ip), vehicle: Klucel (hydroxypropylcellulose) (HPC)): 2 of 6

N/C(=N\O)c1c(Br)n(C2OC(CO)C(O)C2O)c2ncnc(N)c12 (centres undefined)
T/C [5]: 132 % of control

CCCCCCCC/C=C/CC1CCCC(C)N1 (centres undefined) (tested in a mixture with another compound)
survivor count (dose: 60.0 mg/kg/injection, schedule: Q01DX005 (ip), vehicle: saline with Tween-80): 0 of 6
survivor count (dose: 120.0 mg/kg/injection, schedule: Q01DX005 (ip), vehicle: saline with Tween-80): 0 of 6
survivor count [5]: 0 of 6

CCOC(=O)C1=C(C)N(C)C(C)=C(C(=O)OCC)C1c1ccc(Cl)cc1
survivor count [6]: 6 of 6

COC(=O)Nc1nc2cc(OC)c(OC)cc2c(=O)[nH]1
survivor count [1]: 1 of 6
survivor count [2]: 0 of 6

CCOc1cccc(/C=N/NC(=O)C(=O)Nc2cccc(C(F)(F)F)c2)c1O
survivor count (dose: 100.0 mg/kg/injection, schedule: Q01DX005 (ip), vehicle: Klucel (hydroxypropylcellulose) (HPC)): 6 of 6
survivor count [3]: 6 of 6

c1ccc2c3ccc(c2c1)CCc1ccc(c2ccccc12)CC3
survivor count (dose: 400.0 mg/kg/injection, schedule: Q04DX003 (ip), vehicle: other): 6 of 6

CC(=O)c1ccc(NN=NCCF)cc1
T/C (dose: 3.13 mg/kg/injection, schedule: Q01DX009 (ip), vehicle: water): 125 % of control
survivor count (dose: 12.5 mg/kg/injection, schedule: Q01DX009 (ip), vehicle: water): 0 of 6
survivor count (dose: 25.0 mg/kg/injection, schedule: Q01DX009 (ip), vehicle: distilled water + Tween-80): 0 of 5
survivor count (dose: 25.0 mg/kg/injection, schedule: Q01DX009 (ip), vehicle: water): 0 of 6
survivor count (dose: 50.0 mg/kg/injection, schedule: Q01DX009 (ip), vehicle: distilled water + Tween-80): 0 of 5
survivor count (dose: 100.0 mg/kg/injection, schedule: Q01DX009 (ip), vehicle: distilled water + Tween-80): 0 of 5
survivor count [6]: 0 of 5

CCCCOc1ccc(-c2c(COC(=O)NC)c(COC(=O)NC)c(C)n2C)cc1
T/C (dose: 7.5 mg/kg/injection, schedule: Q01DX009 (ip), vehicle: distilled water + Tween-80): 137 % of control
T/C (dose: 15.0 mg/kg/injection, schedule: Q01DX009 (ip), vehicle: distilled water + Tween-80): 143 and 146 % of control
T/C (dose: 30.0 mg/kg/injection, schedule: Q01DX009 (ip), vehicle: distilled water + Tween-80): 143 and 144 % of control
survivor count (dose: 120.0 mg/kg/injection, schedule: Q01DX009 (ip), vehicle: distilled water + Tween-80): 3 of 6 and 4 of 6

CCCCCCCCCCCCCCCC(=O)Nc1ccn(C2OC(CO)C(O)C2O)c(=O)n1 (centres undefined)
survivor count (dose: 50.0 mg/kg/injection, schedule: Q01DX009 (ip), vehicle: suspension in saline): 5 of 6 and 6 of 6
survivor count (dose: 100.0 mg/kg/injection, schedule: Q01DX009 (ip), vehicle: suspension in saline): 6 of 6
survivor count (dose: 200.0 mg/kg/injection, schedule: Q01DX009 (ip), vehicle: suspension in saline): 2 of 6
survivor count (dose: 400.0 mg/kg/injection, schedule: Q01DX009 (ip), vehicle: suspension in saline): 4 of 6
